Results are given in words; binding and its absence hold for the method and conditions named. Some binding calls cover weakened binding; strength is not graded here. Tags and fused reporters may be left off the sequences shown.
B1: p621 (prey clone, fused to the src myristylation signal of pMyr) (protein)
chain: PSEKNEFSRRKRSKSEDMDNVQSKRRRYMEEEYEAEFQVKITAKGDINQKLQKVIQWLLEEKLCALQCAVFDKTLAELKTRVEKIECNKRHKTVLTELQAKIARLTKRFEAAKEDLKKRHEHPPNPPVSPGKTVNDVNSNNNMSYRNAGTVRQMLESKRNVSESAPPSFQTPVNTVSSTNLVTPPAVVSSQPKLQTPVTSGSLTATSVLPAPNTATVVATTQVPSGNPQPTISLQPLPVILHVPVAVSSQPQLLQSHPGTLVTNQPSGNVEFISVQSPPTVSGLTKNPVSLPSLPNPTKPNNVPSVPSPSIQRNPTASAAPLGTTLAVQAVPTAHSIVQATRTSLPTVGPSGLYSPSTNRGPIQMKIPISAFSTSSAAEQNSNTTPRIENQTNKTIDASVSKKAADSTSQCGKATGSDSSGVIDLTMDDEESGASQDPKKLNHTPVSTMSSSQPVSRPLQPIQPAPPLQPSGVPTSGPSQTTIHLLPTAPTTVNVTHRPVTQVTTRLPVPRAPA
B2: FTP3 (Heterogeneous Nuclear Ribonucleoprotein-H'; prey clone D348-A449, fused to the src myristylation signal of pMyr) (protein)
chain: DKANMQHRYVELFLNSTAGTSGGAYDHSYVELFLNSTAGASGGAYGSQMMGGMGLSNQSSYGGPASQQLSGGYGGGYGGQSSMSGYDQVLQENSSDYQSNLA
B3: AES1-2/Groucho (prey clones, fused to the src myristylation signal of pMyr) (protein)
chain: MMFPQSRHSGSSHLPQQLKFTTSDSCDRITDEFQLLQAQYHSLKLECDKLASEKSEMQRHYVMYYEMSYGLNIEMHKQAEIVKRLNGICAQVLPYLSQEHQQQVLGAIERAKQVTAPELNSIIRQQLQAHQLSQLQALALPLTPLPVGLQPPSLPAVSAGTGLLSLSALGSQAHLSKEDKNGHDGDTHQEDDGEKSD

What was measured:
[1] = target: Sos-FOXC2 hybrid protein (human full-length FOXC2, amino acids 1-501, fused to hSos from the pSos vector) (human) (UniProt Q07889); test: SRS (CytoTrap) yeast two-hybrid, compared with the MafB-MafB interaction
[2] = target: Sos-FOXC2 hybrid protein (human full-length FOXC2, amino acids 1-501, fused to hSos from the pSos vector) (human) (UniProt Q07889); test: SRS (CytoTrap) yeast two-hybrid screen
[3] = target: Sos-FOXC2 hybrid protein (human full-length FOXC2, amino acids 1-501, fused to hSos from the pSos vector) (human) (UniProt Q07889); test: SRS (CytoTrap) yeast two-hybrid; interaction strength relative to the MafB-MafB interaction (++++)

Binder	binding [1]	binding [2]	binding [3]
B1	binds	binds	binds
B2	binds	–	binds
B3	binds	–	binds

Source: patent US20060052293A1
